# Results taken from the supplement of paper PMC10849652.
# By UniProt entry, the sequences of proteins in these tests, tags left out. Where a name states a change or a piece, a line headed by the entry shows the natural chain unless it says otherwise.
# UniProt P17676: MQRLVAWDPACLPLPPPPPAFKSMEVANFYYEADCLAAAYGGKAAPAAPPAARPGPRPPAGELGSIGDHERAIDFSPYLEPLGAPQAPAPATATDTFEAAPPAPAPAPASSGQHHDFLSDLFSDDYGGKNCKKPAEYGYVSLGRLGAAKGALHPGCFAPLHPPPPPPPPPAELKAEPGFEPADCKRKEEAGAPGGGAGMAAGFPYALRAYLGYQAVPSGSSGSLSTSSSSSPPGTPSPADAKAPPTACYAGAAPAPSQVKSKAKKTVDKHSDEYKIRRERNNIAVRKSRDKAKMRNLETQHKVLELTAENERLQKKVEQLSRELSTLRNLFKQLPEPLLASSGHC
# UniProt A8MTT3: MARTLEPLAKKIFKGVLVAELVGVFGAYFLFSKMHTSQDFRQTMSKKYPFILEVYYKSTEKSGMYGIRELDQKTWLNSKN
# UniProt Q86XR8: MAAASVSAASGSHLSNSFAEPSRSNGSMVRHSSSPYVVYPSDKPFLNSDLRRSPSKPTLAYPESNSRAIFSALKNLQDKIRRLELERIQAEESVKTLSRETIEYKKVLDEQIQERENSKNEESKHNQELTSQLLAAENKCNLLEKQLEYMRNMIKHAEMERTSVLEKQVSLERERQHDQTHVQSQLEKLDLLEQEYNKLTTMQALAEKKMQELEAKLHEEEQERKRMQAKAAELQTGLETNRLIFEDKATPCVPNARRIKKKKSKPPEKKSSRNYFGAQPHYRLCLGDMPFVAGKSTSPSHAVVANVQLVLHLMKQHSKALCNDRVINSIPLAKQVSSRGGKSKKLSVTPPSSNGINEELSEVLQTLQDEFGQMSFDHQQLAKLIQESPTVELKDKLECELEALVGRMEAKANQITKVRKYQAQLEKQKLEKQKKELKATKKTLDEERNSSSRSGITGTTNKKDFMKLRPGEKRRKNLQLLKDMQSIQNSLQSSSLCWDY
# UniProt Q6IPU0: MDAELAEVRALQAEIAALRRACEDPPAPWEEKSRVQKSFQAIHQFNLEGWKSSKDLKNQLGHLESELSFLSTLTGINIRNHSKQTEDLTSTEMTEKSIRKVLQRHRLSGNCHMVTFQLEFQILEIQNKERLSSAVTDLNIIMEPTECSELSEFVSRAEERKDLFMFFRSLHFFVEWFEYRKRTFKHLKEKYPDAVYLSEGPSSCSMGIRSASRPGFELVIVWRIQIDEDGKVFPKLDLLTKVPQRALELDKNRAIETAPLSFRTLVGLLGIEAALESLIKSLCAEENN
# UniProt Q03701: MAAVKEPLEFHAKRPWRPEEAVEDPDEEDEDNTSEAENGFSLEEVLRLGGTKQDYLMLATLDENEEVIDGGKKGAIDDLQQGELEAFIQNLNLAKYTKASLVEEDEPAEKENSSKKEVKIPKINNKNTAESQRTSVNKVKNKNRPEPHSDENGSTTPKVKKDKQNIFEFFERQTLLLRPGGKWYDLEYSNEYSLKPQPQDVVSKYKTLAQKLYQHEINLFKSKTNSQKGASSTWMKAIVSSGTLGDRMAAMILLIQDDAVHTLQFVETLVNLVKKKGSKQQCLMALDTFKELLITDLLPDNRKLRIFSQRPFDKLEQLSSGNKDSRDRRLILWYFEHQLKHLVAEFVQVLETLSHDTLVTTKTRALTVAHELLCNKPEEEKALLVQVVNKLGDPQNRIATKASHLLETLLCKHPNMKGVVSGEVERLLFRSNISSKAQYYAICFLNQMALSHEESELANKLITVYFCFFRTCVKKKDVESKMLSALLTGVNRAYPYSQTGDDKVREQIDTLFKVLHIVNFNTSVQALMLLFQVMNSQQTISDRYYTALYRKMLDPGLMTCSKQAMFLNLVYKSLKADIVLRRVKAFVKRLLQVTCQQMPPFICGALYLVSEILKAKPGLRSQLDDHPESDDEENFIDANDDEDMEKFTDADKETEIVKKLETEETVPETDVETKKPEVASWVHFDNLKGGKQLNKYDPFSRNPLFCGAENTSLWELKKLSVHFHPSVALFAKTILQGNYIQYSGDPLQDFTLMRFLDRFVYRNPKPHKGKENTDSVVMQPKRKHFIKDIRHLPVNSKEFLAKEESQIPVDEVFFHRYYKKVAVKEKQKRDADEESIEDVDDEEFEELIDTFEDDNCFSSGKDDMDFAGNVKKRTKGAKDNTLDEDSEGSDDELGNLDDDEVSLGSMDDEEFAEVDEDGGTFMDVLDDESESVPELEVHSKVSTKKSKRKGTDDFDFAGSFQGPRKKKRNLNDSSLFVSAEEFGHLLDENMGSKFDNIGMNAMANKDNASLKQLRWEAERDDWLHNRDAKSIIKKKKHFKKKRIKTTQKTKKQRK
# UniProt P53567: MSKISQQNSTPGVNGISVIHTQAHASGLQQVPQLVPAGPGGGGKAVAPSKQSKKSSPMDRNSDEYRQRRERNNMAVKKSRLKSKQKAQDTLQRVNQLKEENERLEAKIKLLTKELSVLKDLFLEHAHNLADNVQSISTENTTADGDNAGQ
# UniProt Q5SW79: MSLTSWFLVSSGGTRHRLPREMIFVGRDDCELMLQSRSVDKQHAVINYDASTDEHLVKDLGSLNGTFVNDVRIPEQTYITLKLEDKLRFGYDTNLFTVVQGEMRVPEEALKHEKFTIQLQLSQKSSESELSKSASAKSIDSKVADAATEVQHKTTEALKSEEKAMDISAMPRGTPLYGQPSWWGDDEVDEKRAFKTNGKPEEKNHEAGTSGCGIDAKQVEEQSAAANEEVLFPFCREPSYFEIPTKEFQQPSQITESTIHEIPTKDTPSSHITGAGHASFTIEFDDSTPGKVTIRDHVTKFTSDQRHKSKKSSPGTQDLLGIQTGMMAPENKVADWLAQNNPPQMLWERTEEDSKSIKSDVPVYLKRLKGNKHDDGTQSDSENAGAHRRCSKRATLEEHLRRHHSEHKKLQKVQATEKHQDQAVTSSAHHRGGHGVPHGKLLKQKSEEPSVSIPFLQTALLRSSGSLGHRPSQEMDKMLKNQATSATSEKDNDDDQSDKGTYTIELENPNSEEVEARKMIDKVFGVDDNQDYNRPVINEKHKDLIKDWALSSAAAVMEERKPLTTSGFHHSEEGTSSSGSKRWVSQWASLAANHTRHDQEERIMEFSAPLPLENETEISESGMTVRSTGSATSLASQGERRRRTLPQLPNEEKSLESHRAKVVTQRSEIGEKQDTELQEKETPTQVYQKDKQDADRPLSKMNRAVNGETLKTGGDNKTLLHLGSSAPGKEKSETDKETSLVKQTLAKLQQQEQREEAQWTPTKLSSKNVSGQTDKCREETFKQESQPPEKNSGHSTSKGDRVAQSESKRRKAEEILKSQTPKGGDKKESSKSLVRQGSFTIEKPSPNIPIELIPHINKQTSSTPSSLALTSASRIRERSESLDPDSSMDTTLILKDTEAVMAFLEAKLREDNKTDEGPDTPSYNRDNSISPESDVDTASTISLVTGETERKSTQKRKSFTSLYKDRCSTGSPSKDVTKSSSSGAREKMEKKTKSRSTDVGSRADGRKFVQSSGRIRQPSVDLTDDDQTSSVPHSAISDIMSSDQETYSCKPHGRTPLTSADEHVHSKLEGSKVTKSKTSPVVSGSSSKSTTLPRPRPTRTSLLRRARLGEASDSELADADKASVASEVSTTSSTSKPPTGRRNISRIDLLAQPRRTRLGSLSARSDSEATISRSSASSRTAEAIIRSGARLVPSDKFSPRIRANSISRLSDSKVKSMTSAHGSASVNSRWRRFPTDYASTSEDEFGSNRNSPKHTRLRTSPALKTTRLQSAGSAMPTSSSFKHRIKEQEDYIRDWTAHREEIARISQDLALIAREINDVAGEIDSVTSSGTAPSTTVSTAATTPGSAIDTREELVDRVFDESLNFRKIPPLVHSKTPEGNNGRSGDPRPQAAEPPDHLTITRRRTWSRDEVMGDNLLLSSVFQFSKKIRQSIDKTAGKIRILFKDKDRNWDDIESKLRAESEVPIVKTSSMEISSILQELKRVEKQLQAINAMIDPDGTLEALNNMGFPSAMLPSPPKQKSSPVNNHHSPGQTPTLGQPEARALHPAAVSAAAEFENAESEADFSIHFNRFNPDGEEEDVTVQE
# UniProt Q9HCK8: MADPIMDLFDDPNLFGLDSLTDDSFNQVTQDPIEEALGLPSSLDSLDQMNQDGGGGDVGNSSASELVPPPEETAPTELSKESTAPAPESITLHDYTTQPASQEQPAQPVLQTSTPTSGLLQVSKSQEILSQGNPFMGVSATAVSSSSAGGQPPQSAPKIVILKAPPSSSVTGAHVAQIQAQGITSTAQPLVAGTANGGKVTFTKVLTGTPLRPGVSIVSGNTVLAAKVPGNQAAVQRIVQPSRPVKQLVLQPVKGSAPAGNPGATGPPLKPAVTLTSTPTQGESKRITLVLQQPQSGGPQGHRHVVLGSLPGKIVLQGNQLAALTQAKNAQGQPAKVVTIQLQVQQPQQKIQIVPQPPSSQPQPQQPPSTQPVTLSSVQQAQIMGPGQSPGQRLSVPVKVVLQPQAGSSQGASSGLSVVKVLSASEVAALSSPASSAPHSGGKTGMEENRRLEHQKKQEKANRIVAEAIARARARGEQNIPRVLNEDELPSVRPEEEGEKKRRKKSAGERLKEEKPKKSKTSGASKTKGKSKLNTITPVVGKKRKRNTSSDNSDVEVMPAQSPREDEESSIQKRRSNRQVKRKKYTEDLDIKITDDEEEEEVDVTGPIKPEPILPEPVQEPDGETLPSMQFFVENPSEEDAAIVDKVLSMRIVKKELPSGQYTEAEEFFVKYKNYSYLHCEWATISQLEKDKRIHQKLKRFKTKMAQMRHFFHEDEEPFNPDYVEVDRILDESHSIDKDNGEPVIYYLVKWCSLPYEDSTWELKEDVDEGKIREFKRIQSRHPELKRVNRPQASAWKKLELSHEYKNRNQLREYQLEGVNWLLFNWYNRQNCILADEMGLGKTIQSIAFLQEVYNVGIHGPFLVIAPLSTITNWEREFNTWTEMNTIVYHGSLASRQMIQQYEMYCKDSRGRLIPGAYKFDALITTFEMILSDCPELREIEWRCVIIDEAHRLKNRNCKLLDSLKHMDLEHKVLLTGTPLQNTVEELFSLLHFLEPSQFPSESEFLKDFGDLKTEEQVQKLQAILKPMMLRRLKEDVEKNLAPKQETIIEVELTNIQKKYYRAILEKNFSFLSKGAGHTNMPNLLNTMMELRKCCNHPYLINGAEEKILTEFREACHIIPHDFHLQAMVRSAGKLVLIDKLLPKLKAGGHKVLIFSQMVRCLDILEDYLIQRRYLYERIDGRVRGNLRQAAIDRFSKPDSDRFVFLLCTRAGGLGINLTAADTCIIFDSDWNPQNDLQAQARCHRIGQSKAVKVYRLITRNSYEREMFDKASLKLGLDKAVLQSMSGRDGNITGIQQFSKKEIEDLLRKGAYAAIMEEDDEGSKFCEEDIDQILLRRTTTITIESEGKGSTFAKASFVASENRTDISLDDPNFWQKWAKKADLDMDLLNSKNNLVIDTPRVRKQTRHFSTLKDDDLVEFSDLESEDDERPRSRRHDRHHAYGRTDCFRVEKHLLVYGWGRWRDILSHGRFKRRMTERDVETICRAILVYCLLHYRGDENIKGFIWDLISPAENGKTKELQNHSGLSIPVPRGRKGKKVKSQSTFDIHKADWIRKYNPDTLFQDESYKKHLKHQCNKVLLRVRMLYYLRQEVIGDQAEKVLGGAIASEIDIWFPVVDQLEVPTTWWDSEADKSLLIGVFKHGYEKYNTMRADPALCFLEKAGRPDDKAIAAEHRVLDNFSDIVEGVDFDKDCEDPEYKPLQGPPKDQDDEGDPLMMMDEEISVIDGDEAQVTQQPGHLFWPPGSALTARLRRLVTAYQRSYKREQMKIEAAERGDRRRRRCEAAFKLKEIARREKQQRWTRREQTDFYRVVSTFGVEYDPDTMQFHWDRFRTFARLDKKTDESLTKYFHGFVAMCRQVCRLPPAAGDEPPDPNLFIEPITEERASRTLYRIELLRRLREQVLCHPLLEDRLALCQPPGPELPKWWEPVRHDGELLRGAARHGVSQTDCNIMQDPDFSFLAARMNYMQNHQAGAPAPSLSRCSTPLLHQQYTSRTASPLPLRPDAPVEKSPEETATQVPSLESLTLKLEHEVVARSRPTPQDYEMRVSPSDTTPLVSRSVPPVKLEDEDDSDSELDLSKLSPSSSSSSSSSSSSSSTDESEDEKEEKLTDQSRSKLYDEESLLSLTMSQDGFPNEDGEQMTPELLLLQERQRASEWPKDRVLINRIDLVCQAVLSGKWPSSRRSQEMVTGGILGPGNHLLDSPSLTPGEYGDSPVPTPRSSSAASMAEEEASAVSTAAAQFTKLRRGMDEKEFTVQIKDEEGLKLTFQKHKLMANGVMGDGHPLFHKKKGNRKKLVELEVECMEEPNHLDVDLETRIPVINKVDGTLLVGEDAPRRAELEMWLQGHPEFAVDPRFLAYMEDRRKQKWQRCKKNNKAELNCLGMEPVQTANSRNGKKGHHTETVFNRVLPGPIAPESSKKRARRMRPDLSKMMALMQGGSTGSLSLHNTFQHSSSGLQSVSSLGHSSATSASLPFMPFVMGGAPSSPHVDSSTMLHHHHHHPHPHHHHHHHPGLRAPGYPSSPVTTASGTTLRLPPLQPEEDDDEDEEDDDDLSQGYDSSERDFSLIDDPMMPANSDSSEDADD
# Some of the results follow.
# Legend:
# Assay in all cases: log2 fold change, soluble protein after heating vs DMSO (PISA); higher = thermal stabilisation; K562 cells, 10 uM, 30 min; active = over 0.2 and 3.5 SD of the protein, either way, in both replicates (recomputed)
# [1] = compound: CC1=CC=C(C=C1)SC2=C3C=C(SC3=CN=C2)C(=O)N
# How it was run: (§1)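 K562 cells at 2×10^6 cells/mL were treated for 30 min with 10 μM compound, and aliquots were heated for 3 min over 48°C-58°C before pooling. Extraction used PBS with 0.5% NP-40 at 4°C, and soluble protein was the supernatant after 21,000xg for 90 min, measured by TMTpro 16plex LC-MS/MS with channel sums equalised. Thermal stability values, relative to control samples and from duplicates, are log2 fold changes.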
# [2] = compound: CCCCN(Cc1ccc(C(=O)NO)cc1)C(=O)Nc1ccccc1 [Nexturastat A]
# How it was run: as §1
# [3] = compound: CCCS(=O)(=O)Nc1ccc(F)c(C(=O)c2c[nH]c3ncc(-c4ccc(Cl)cc4)cc23)c1F [vemurafenib]
# How it was run: as §1
# [4] = compound: CCCS(=O)(=O)Nc1ccc(F)c(C(=O)c2c[nH]c3ncc(Cl)cc23)c1F
# How it was run: as §1
# [5] = compound: CCCc1cc(C)[nH]c(=O)c1CNC(=O)c1cc(-c2ccnc(N3CCN(C)CC3)c2)cc2c1cnn2C(C)C
# How it was run: as §1
# [6] = compound: CCN(CC)Cc1ccc2cc(COC(=O)Nc3ccc(C(=O)NO)cc3)ccc2c1 [givinostat]
# How it was run: as §1
# [7] = compound: CCN(CCCOc1ccc2c(Nc3cc(CC(=O)Nc4cccc(F)c4)[nH]n3)ncnc2c1)CCOP(=O)(O)O [barasertib]
# How it was run: as §1
# [8] = compound: CC1=NC(=CC=C1)C2=C(N=C(N2)C(C)(C)C)C3=CC4=NC=CN=C4C=C3
# How it was run: as §1
# [9] = compound: CC1=C(C=C(C=C1)NC(=O)C2=CC(=CC=C2)N(C)C)NC(=O)C3=CC=C(C=C3)O
# How it was run: as §1
# [10] = compound: CC1=C(C=C(C=C1)NC(=O)C2=CC(=CC=C2)C(C)(C)C#N)NC3=CC4=C(C=C3)N=CN(C4=O)C
# How it was run: as §1
target,measurement,setting,value
CEFIP (UniProt Q711Q0),log2 fold change,[1],inactive: -0.022
same,log2 fold change,[2],inactive: 0.145
same,log2 fold change,[3],inactive: 0.183
same,log2 fold change,[4],inactive: 0.012
same,log2 fold change,[5],inactive: -0.002
same,log2 fold change,[6],inactive: -0.038
same,log2 fold change,[7],inactive: 0.168
CENPK (UniProt Q9BS16),log2 fold change,[1],inactive: -0.016
same,log2 fold change,[8],inactive: 0.074
same,log2 fold change,[3],inactive: 0.026
same,log2 fold change,[4],inactive: 0.085
same,log2 fold change,[6],inactive: -0.016
same,log2 fold change,[7],inactive: -0.022
CFAP47 (UniProt Q6ZTR5),log2 fold change,[1],inactive: -0.159
same,log2 fold change,[2],inactive: -0.041
same,log2 fold change,[3],inactive: -0.11
same,log2 fold change,[4],inactive: -0.106
same,log2 fold change,[7],inactive: -0.035
CEP83 (UniProt Q9Y592),log2 fold change,[9],inactive: -0.038
same,log2 fold change,[8],inactive: -0.258
same,log2 fold change,[7],inactive: 0
CENPM (UniProt Q9NSP4),log2 fold change,[6],inactive: 0.075
CDC42BPG (UniProt Q6DT37),log2 fold change,[3],inactive: 0.133
same,log2 fold change,[6],inactive: 0.1
CDC42EP3 (UniProt Q9UKI2),log2 fold change,[2],inactive: -0.076
same,log2 fold change,[5],inactive: -0.318
same,log2 fold change,[6],inactive: -0.113
CHCHD10 (UniProt Q8WYQ3),log2 fold change,[9],inactive: -0.06
same,log2 fold change,[1],inactive: -0.032
same,log2 fold change,[8],inactive: 0.161
same,log2 fold change,[2],inactive: 0.028
same,log2 fold change,[3],inactive: 0.098
same,log2 fold change,[4],inactive: 0.069
same,log2 fold change,[5],inactive: 0.034
same,log2 fold change,[6],inactive: -0.215
same,log2 fold change,[7],inactive: -0.012
CFAP58 (UniProt Q5T655),log2 fold change,[9],inactive: 0.185
same,log2 fold change,[1],inactive: 0.07
same,log2 fold change,[4],inactive: -0.175
same,log2 fold change,[5],inactive: -0.219
CENPC (UniProt Q03188),log2 fold change,[1],inactive: -0.071
same,log2 fold change,[8],inactive: -0.189
same,log2 fold change,[2],inactive: 0.124
same,log2 fold change,[3],inactive: 0.076
same,log2 fold change,[4],inactive: -0.039
same,log2 fold change,[6],inactive: -0.422
CEP41 (UniProt Q9BYV8),log2 fold change,[10],inactive: -0.381
same,log2 fold change,[8],inactive: 0.166
same,log2 fold change,[6],inactive: 0.191
CHD1L (UniProt Q86WJ1),log2 fold change,[10],inactive: 0.04
same,log2 fold change,[3],inactive: -0.165
CENPX (UniProt A8MT69),log2 fold change,[10],inactive: -0.04
same,log2 fold change,[6],inactive: 0.321
CHFR (UniProt Q96EP1),log2 fold change,[1],inactive: 0.163
same,log2 fold change,[8],inactive: 0.018
same,log2 fold change,[2],inactive: 0.128
same,log2 fold change,[3],inactive: 0.12
same,log2 fold change,[4],inactive: -0.067
same,log2 fold change,[5],inactive: -0.344
CEBPB (UniProt P17676),log2 fold change,[9],inactive: 0.043
same,log2 fold change,[1],inactive: 0.039
same,log2 fold change,[8],inactive: -0.108
same,log2 fold change,[2],inactive: 0.137
same,log2 fold change,[4],inactive: 0.006
same,log2 fold change,[5],inactive: 0.014
same,log2 fold change,[6],inactive: -0.145
same,log2 fold change,[7],inactive: -0.087
CHMP2A (UniProt M0R1T5),log2 fold change,[1],inactive: -0.013
same,log2 fold change,[4],inactive: 0.008
same,log2 fold change,[5],inactive: -0.038
CDC6 (UniProt Q99741),log2 fold change,[2],inactive: 0.453
CDK5RAP2 (UniProt Q96SN8),log2 fold change,[8],inactive: -0.085
same,log2 fold change,[2],inactive: -0.011
same,log2 fold change,[3],inactive: -0.242
same,log2 fold change,[7],inactive: 0.272
CDK2AP2 (UniProt O75956),log2 fold change,[9],inactive: -0.14
same,log2 fold change,[8],inactive: 0.021
same,log2 fold change,[2],inactive: 0.022
same,log2 fold change,[5],inactive: -0.065
same,log2 fold change,[6],inactive: -0.154
same,log2 fold change,[7],inactive: -0.029
CDR2L (UniProt Q86X02),log2 fold change,[9],inactive: -0.005
same,log2 fold change,[3],inactive: -0.068
same,log2 fold change,[6],inactive: -0.015
CDS1 (UniProt Q92903),log2 fold change,[2],inactive: 0.091
same,log2 fold change,[5],inactive: -0.199
same,log2 fold change,[6],inactive: 0.001
same,log2 fold change,[7],inactive: 0.063
CDC7 (UniProt O00311),log2 fold change,[3],inactive: 0.049
CEBPZOS (UniProt A8MTT3),log2 fold change,[9],inactive: -0.015
same,log2 fold change,[1],inactive: 0.027
same,log2 fold change,[8],inactive: -0.016
same,log2 fold change,[3],inactive: 0.065
same,log2 fold change,[4],inactive: 0.132
same,log2 fold change,[5],inactive: -0.069
same,log2 fold change,[6],inactive: -0.029
same,log2 fold change,[7],inactive: 0.059
CEP57 (UniProt Q86XR8),log2 fold change,[10],inactive: -0.094
same,log2 fold change,[5],inactive: -0.029
CEP85 (UniProt Q6P2H3),log2 fold change,[9],inactive: 0.083
same,log2 fold change,[1],inactive: 0.018
same,log2 fold change,[3],inactive: -0.035
same,log2 fold change,[4],inactive: -0.053
same,log2 fold change,[5],inactive: 0.172
same,log2 fold change,[7],inactive: 0.201
CHD1 (UniProt O14646),log2 fold change,[2],inactive: 0.166
CDT1 (UniProt Q9H211),log2 fold change,[2],inactive: 0.096
CENPP (UniProt Q6IPU0),log2 fold change,[9],inactive: -0.053
same,log2 fold change,[1],inactive: -0.03
same,log2 fold change,[8],inactive: -0.046
same,log2 fold change,[2],inactive: 0.204
same,log2 fold change,[4],inactive: -0.148
same,log2 fold change,[5],inactive: 0.014
same,log2 fold change,[6],inactive: -0.019
same,log2 fold change,[7],inactive: -0.015
CEBPZ (UniProt Q03701),log2 fold change,[10],inactive: -0.263
same,log2 fold change,[3],inactive: -0.028
same,log2 fold change,[5],inactive: 0.047
CENPQ (UniProt Q7L2Z9),log2 fold change,[10],inactive: -0.025
same,log2 fold change,[2],inactive: -0.116
same,log2 fold change,[5],inactive: 0.122
same,log2 fold change,[6],inactive: 0.225
CEBPG (UniProt P53567),log2 fold change,[9],inactive: -0.062
same,log2 fold change,[1],inactive: -0.07
same,log2 fold change,[4],inactive: -0.16
CDH2 (UniProt P19022),log2 fold change,[1],inactive: 0.2
same,log2 fold change,[8],inactive: -0.003
same,log2 fold change,[4],inactive: -0.162
CEP170 isoform 3 (UniProt Q5SW79),log2 fold change,[8],inactive: 0.054
same,log2 fold change,[6],inactive: -0.074
same,log2 fold change,[7],inactive: 0.018
CDC42EP2 (UniProt O14613),log2 fold change,[10],inactive: 0.072
same,log2 fold change,[2],inactive: 0.061
same,log2 fold change,[6],inactive: 0.099
same,log2 fold change,[7],inactive: 0.123
CEMIP2 (UniProt Q9UHN6),log2 fold change,[9],inactive: 0.043
same,log2 fold change,[1],active: 0.592
same,log2 fold change,[8],inactive: 0.033
same,log2 fold change,[2],inactive: 0.02
same,log2 fold change,[3],inactive: -0.045
same,log2 fold change,[4],inactive: -0.1
same,log2 fold change,[5],inactive: -0.168
same,log2 fold change,[6],inactive: -0.052
same,log2 fold change,[7],inactive: -0.012
CHD8 (UniProt Q9HCK8),log2 fold change,[9],inactive: -0.009
same,log2 fold change,[2],inactive: 0.032
same,log2 fold change,[7],inactive: -0.024

# Laid out differently: entries from further up.
target	measurement	setting	value
CHCHD10 (UniProt Q8WYQ3)	log2 fold change	[5]	inactive: 0.034
same	log2 fold change	[6]	inactive: -0.215
same	log2 fold change	[7]	inactive: -0.012
CFAP58 (UniProt Q5T655)	log2 fold change	[9]	inactive: 0.185
same	log2 fold change	[1]	inactive: 0.07
same	log2 fold change	[4]	inactive: -0.175
same	log2 fold change	[5]	inactive: -0.219
CENPC (UniProt Q03188)	log2 fold change	[1]	inactive: -0.071
same	log2 fold change	[8]	inactive: -0.189
same	log2 fold change	[2]	inactive: 0.124
same	log2 fold change	[3]	inactive: 0.076
same	log2 fold change	[4]	inactive: -0.039
same	log2 fold change	[6]	inactive: -0.422
CEP41 (UniProt Q9BYV8)	log2 fold change	[10]	inactive: -0.381
same	log2 fold change	[8]	inactive: 0.166
same	log2 fold change	[6]	inactive: 0.191
CHD1L (UniProt Q86WJ1)	log2 fold change	[10]	inactive: 0.04
same	log2 fold change	[3]	inactive: -0.165
CENPX (UniProt A8MT69)	log2 fold change	[10]	inactive: -0.04
same	log2 fold change	[6]	inactive: 0.321
CHFR (UniProt Q96EP1)	log2 fold change	[1]	inactive: 0.163
same	log2 fold change	[8]	inactive: 0.018
same	log2 fold change	[2]	inactive: 0.128
same	log2 fold change	[3]	inactive: 0.12
same	log2 fold change	[4]	inactive: -0.067
same	log2 fold change	[5]	inactive: -0.344
CEBPB (UniProt P17676)	log2 fold change	[9]	inactive: 0.043
same	log2 fold change	[1]	inactive: 0.039
same	log2 fold change	[8]	inactive: -0.108
same	log2 fold change	[2]	inactive: 0.137
same	log2 fold change	[4]	inactive: 0.006
same	log2 fold change	[5]	inactive: 0.014
same	log2 fold change	[6]	inactive: -0.145
same	log2 fold change	[7]	inactive: -0.087
CHMP2A (UniProt M0R1T5)	log2 fold change	[1]	inactive: -0.013
same	log2 fold change	[4]	inactive: 0.008
same	log2 fold change	[5]	inactive: -0.038
CDC6 (UniProt Q99741)	log2 fold change	[2]	inactive: 0.453
CDK5RAP2 (UniProt Q96SN8)	log2 fold change	[8]	inactive: -0.085
same	log2 fold change	[2]	inactive: -0.011
same	log2 fold change	[3]	inactive: -0.242
same	log2 fold change	[7]	inactive: 0.272
CDK2AP2 (UniProt O75956)	log2 fold change	[9]	inactive: -0.14
